{"sequences": {"note": "Chains of the proteins cited; added tags and fusions are not shown.", "UniProt Q8BTW9": "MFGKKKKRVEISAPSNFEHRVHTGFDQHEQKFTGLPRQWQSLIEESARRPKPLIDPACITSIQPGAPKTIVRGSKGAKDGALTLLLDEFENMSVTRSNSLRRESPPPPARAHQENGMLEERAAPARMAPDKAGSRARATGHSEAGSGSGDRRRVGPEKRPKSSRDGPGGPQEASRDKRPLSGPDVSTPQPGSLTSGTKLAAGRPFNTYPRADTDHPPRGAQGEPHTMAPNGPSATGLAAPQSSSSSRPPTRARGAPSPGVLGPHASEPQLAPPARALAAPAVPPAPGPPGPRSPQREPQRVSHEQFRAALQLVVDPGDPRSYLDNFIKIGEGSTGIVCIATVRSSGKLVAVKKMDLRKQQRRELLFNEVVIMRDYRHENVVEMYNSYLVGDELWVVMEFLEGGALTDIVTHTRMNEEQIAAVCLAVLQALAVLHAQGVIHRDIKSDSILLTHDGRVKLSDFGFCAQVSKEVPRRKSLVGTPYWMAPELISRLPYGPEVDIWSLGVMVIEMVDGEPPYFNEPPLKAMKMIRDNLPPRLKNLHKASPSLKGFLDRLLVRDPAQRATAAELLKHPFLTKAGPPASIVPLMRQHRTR"}, "source": "paper PMC10435519", "molecular_target": "T1, Peroxisome proliferator-activated receptor alpha (PPARα) (mouse (endogenous in mouse primary hepatocytes)) (UniProt P23204)", "T1 sequence": "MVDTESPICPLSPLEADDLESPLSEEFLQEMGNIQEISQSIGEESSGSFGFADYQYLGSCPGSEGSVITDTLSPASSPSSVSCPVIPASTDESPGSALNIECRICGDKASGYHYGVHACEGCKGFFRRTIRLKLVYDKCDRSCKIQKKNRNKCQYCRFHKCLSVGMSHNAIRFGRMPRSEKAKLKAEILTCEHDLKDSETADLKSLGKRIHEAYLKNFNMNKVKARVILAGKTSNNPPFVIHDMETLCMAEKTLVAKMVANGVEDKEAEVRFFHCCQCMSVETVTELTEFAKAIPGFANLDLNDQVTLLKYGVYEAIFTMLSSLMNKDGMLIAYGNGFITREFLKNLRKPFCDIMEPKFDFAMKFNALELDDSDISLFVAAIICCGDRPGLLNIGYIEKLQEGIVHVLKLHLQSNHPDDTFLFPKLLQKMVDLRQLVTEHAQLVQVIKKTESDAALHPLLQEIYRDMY", "assay": "co-IP; lysates (200 μg) of mouse primary hepatocytes infected with AdLacZ, AdPAK4 or AdPAK4 S474A; immunoprecipitated with antibodies against NCoR1 or PPARα, immunoblotted", "note": "No constants are given. Whether binding was seen depends on the method and setting. Binding seen in cells or lysates may run through a third protein. Some binding calls cover weakened binding; strength is not graded here.", "data": [{"substance": "p21-activated kinase 4 (PAK4) (from UniProt Q8BTW9 1-593) (enzyme)", "values": [{"measurement": "binding", "result": "binds"}]}]}
